PubChem BioAssay AID720505, Drosophila RNAi Screening Center, 2013
The screen tested about 20,000 reagents; below is an unselected part of those with a known target gene and a result. In the full data, about 2,100 (10%) were called active. 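Raw plate signals without normalisation; calls rest on control-based scores that were not deposited; replicate 2 separates called from uncalled poorly.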 Unmarked entries are inactive. Reagents against one gene are numbered here. A plus sign joins genes that one reagent is predicted to hit. Not given: the amount of reagent, the time to read-out.

- Purpose: 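Knock-downs that reduce calcium influx once internal stores are emptied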 (primary screen)
- System: Drosophila S2R+ cells
- Knock-down reagent: long dsRNA against Drosophila genes
- Conditions: thapsigargin (2 µM) in calcium-free buffer to empty internal stores, then 2 mM calcium added back
- Read-out: 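Fluo-4 signal in 384-well plates read on a FLIPR after thapsigargin (2 µM, calcium-free) store depletion and 2 mM calcium add-back; unnormalised mean endpoint per well; screen run twice, selected wells retested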
- Scale: calcium signal and retest calcium signal: higher = more calcium entry after store depletion
- Call rule: 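Knock-downs counted as hits when calcium entry dropped relative to STIM1 positive and Rho1 negative controls present on each plate; roughly 1500 genes called, with reductions of differing size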
- Calls: active = called as lowering calcium entry; inactive = not called

With knock-down of mRpL38 the results were calcium signal, replicate 1 = 70.5 (active); calcium signal, replicate 2 = 119.
Knock-down of frma gave: calcium signal, replicate 1 = 165; calcium signal, replicate 2 = 86.3.
Depletion of bb8 came out at: calcium signal, replicate 1 = 227; calcium signal, replicate 2 = 139.
Deaf1 #1 gave calcium signal, replicate 1 = 85.9; calcium signal, replicate 2 = 192; retest calcium signal, replicate 1 = 5930; retest calcium signal, replicate 2 = 133.
For Deaf1 #2, the values are calcium signal, replicate 1 = 136; calcium signal, replicate 2 = 165.
Silencing of CG10494 resulted in: calcium signal, replicate 1 = 143; calcium signal, replicate 2 = 93.5.
After knock-down of CG15225 #1, the record shows calcium signal, replicate 1 = 167; calcium signal, replicate 2 = 101.
CG15225 #2 showed calcium signal, replicate 1 = 90.9; calcium signal, replicate 2 = 145.
fzo scored calcium signal, replicate 1 = 208; calcium signal, replicate 2 = 148.
Against CG9691 the deposit lists calcium signal, replicate 1 = 72.3 (active); calcium signal, replicate 2 = 120.
Depletion of CG7706 resulted in: calcium signal, replicate 1 = 124; calcium signal, replicate 2 = 192.
CG42534 #1 scored calcium signal, replicate 1 = 230; calcium signal, replicate 2 = 170.
With knock-down of CG42534 #2, the record shows calcium signal, replicate 1 = 143; calcium signal, replicate 2 = 142.
Knock-down of CG42534 #3 came out at: calcium signal, replicate 1 = 149; calcium signal, replicate 2 = 130.
Against CG42534 #4, the entry reads calcium signal, replicate 1 = 110; calcium signal, replicate 2 = 188.
With knock-down of yellow-h, the record shows calcium signal, replicate 1 = 132; calcium signal, replicate 2 = 156.
CG12391 showed calcium signal, replicate 1 = 160; calcium signal, replicate 2 = 145.
With knock-down of asRNA:CR43159 + yellow-k, the screen gave calcium signal, replicate 1 = 86; calcium signal, replicate 2 = 118.
Ctns showed calcium signal, replicate 1 = 143; calcium signal, replicate 2 = 114.
CG2889 scored calcium signal, replicate 1 = 70.9; calcium signal, replicate 2 = 92.4.

Look-ups from the entries so far.
For “calcium signal, replicate 2”, CG10494 has 93.5
Value for CG42534 #1 in “calcium signal, replicate 2”: 170

The list goes on:
After knock-down of Nox #1, the record shows calcium signal, replicate 1 = 151; calcium signal, replicate 2 = 151.
For Nox #2, the values are calcium signal, replicate 1 = 134; calcium signal, replicate 2 = 133.
For sip1 #1, the values are calcium signal, replicate 1 = 145; calcium signal, replicate 2 = 110.
sip1 #2 scored calcium signal, replicate 1 = 108; calcium signal, replicate 2 = 173.
CG1986 showed calcium signal, replicate 1 = 102; calcium signal, replicate 2 = 84.5.
Silencing of PIG-G came out at: calcium signal, replicate 1 = 177; calcium signal, replicate 2 = 74.5.
With knock-down of rdog, the screen gave calcium signal, replicate 1 = 86; calcium signal, replicate 2 = 124.
CCT8 gave calcium signal, replicate 1 = 173; calcium signal, replicate 2 = 125.
Depletion of Tsp42Eb + CG30160 #1 came out at: calcium signal, replicate 1 = 122; calcium signal, replicate 2 = 97.7.
Tsp42Eb + CG30160 #2 showed calcium signal, replicate 1 = 63 (active); calcium signal, replicate 2 = 126.
After knock-down of fng #1, the screen gave calcium signal, replicate 1 = 8794; calcium signal, replicate 2 = 124.
Depletion of fng #2 came out at: calcium signal, replicate 1 = 150; calcium signal, replicate 2 = 86.7.
fng #3 gave calcium signal, replicate 1 = 68.3; calcium signal, replicate 2 = 246.
Against AP-2mu the deposit lists calcium signal, replicate 1 = 229; calcium signal, replicate 2 = 213.
With knock-down of Sem1, the screen gave calcium signal, replicate 1 = 64.2 (active); calcium signal, replicate 2 = 137.
